# In the supplement of paper PMC8728848:
# This is one part of the list.
# B1: AT1G80310(18) (Arabidopsis thaliana), Q0WP36 (protein)
# chain: METTTTPLLPGDRSRCGWLRRRLRLKNPLSSELSGAVGDLGTFIPIVLTLTLVSNLDLSTTLIFTGFYNIATGLLFDIPMPVQPMKSIAAVAVSESPHLTPSQIAAAGASTAATLLLLGATGAMSFLYNIIPLPVVRGVQLSQGLQFAFTAIKYVRFNYDTATLKPSSSPRIWLGLDGLILALAALLFIILSTGSGNDREAEDGDLAETSSNESQSRRRRLRLLSSIPSALIVFALGLVLCFIRDPSIFKDLKFGPSKFHILRISWDDWKIGFLRAAIPQIPLSVLNSVIAVCKLSNDLFDKELSATTVSISVGVMNLIGCWFGAMPVCHGAGGLAGQYRFGARSGLSVIFLGIGKLIVGLVFGNSFVRILSQFPIGILGVLLLFAGIELAMASKDMNSKEDSFIMLVCAAVSMTGSSAALGFGCGVVLYLLLKLRTLDCSSVTLFSRSSDESQVDSEAAPRDV
# How the values were obtained:
# Experiment in all cases: glycan array binding signal (z-score within array); higher = stronger binding
# Conditions in all cases: glycan notation: IUPAC condensed, linker removed
# [1] = biological target: Gal(a1-3)Gal(b1-4)GlcNAc
# How it was run: (§1)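 Columns mapping to the same glycan were averaged after glycan names were converted to IUPAC-condensed notation. The data come from 3228 arrays in the Consortium for Functional Glycomics database, limited to those with an available protein sequence. Binding is reported as a within-array Z-score averaged across arrays of one protein sequence and across linkers.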
# [2] = biological target: Gal(a1-3)Gal(b1-4)GlcNAc(b1-2)Man
# How it was run: as §1
# [3] = biological target: Gal(a1-3)Gal(b1-4)GlcNAc(b1-2)Man(a1-3)[Gal(a1-3)Gal(b1-4)GlcNAc(b1-2)Man(a1-6)]Man(b1-4)GlcNAc(b1-4)GlcNAc
# How it was run: as §1
# [4] = biological target: Gal(a1-3)Gal(b1-4)GlcNAc(b1-3)GalNAc
# How it was run: as §1
# [5] = biological target: Gal(a1-3)Gal(b1-4)GlcNAc(b1-6)GalNAc
# How it was run: as §1
# [6] = biological target: Gal(a1-3)Gal(b1-4)[Fuc(a1-3)]GlcNAc
# How it was run: as §1
# [7] = biological target: Gal(a1-3)Gal(b1-4)[Fuc(a1-3)]GlcNAc(b1-2)Man(a1-3)[Gal(a1-3)Gal(b1-4)[Fuc(a1-3)]GlcNAc(b1-2)Man(a1-6)]Man(b1-4)GlcNAc(b1-4)GlcNAc
# How it was run: as §1
# [8] = biological target: Gal(a1-3)GalNAc
# How it was run: as §1
# [9] = biological target: Gal(a1-3)[Gal(a1-4)]Gal(b1-4)GlcNAc
# How it was run: as §1
# [10] = biological target: Gal(a1-4)Gal(b1-3)GlcNAc(b1-2)Man(a1-3)[Gal(a1-4)Gal(b1-3)GlcNAc(b1-2)Man(a1-6)]Man(b1-4)GlcNAc(b1-4)GlcNAc
# How it was run: as §1
# [11] = biological target: Gal(a1-4)Gal(b1-4)Glc
# How it was run: as §1
# [12] = biological target: Gal(a1-4)Gal(b1-4)GlcNAc
# How it was run: as §1
# [13] = biological target: Gal(a1-4)Gal(b1-4)GlcNAc(b1-2)Man(a1-3)[Gal(a1-4)Gal(b1-4)GlcNAc(b1-2)Man(a1-6)]Man(b1-4)GlcNAc(b1-4)GlcNAc
# How it was run: as §1
# [14] = biological target: Gal(a1-4)Gal(b1-4)GlcNAc(b1-3)Gal(b1-4)Glc
# How it was run: as §1
# [15] = biological target: Gal(a1-4)GlcNAc
# How it was run: as §1
# [16] = biological target: Gal(a1-6)Glc
# How it was run: as §1
# [17] = biological target: Gal(b1-2)Gal
# How it was run: as §1
# [18] = biological target: Gal(b1-3)Gal
# How it was run: as §1
# [19] = biological target: Gal(b1-3)Gal(b1-4)GlcNAc
# How it was run: as §1
# [20] = biological target: Gal(b1-3)GalNAc
# How it was run: as §1
# [21] = biological target: Gal(b1-3)GalNAc(a1-3)[Fuc(a1-2)]Gal(b1-4)Glc
# How it was run: as §1
# [22] = biological target: Gal(b1-3)GalNAc(a1-3)[Fuc(a1-2)]Gal(b1-4)GlcNAc
# How it was run: as §1
# [23] = biological target: Gal(b1-3)GalNAc(b1-3)Gal
# How it was run: as §1
# [24] = biological target: Gal(b1-3)GalNAc(b1-3)Gal(a1-4)Gal(b1-4)Glc
# How it was run: as §1
# [25] = biological target: Gal(b1-3)GalNAc(b1-4)Gal(b1-4)Glc
# How it was run: as §1
# [26] = biological target: Gal(b1-3)GalNAc(b1-4)[Neu5Ac(a2-3)]Gal(b1-4)Glc
# How it was run: as §1
# [27] = biological target: Gal(b1-3)GlcNAc
# How it was run: as §1
# [28] = biological target: Gal(b1-3)GlcNAc(a1-3)Gal(b1-4)GlcNAc
# How it was run: as §1
# [29] = biological target: Gal(b1-3)GlcNAc(a1-6)Gal(b1-4)GlcNAc
# How it was run: as §1
# [30] = biological target: Gal(b1-3)GlcNAc(b1-2)Man
# How it was run: as §1
# [31] = biological target: Gal(b1-3)GlcNAc(b1-2)Man(a1-3)[Gal(b1-3)GlcNAc(b1-2)Man(a1-6)]Man(b1-4)GlcNAc(b1-4)GlcNAc
# How it was run: as §1
# [32] = biological target: Gal(b1-3)GlcNAc(b1-2)Man(a1-3)[Gal(b1-3)GlcNAc(b1-2)Man(a1-6)]Man(b1-4)GlcNAc(b1-4)[Fuc(a1-6)]GlcNAc
# How it was run: as §1
# [33] = biological target: Gal(b1-3)GlcNAc(b1-2)Man(a1-3)[GlcNAc(b1-4)][Gal(b1-3)GlcNAc(b1-2)Man(a1-6)]Man(b1-4)GlcNAc(b1-4)GlcNAc
# How it was run: as §1
# [34] = biological target: Gal(b1-3)GlcNAc(b1-2)[Gal(b1-3)GlcNAc(b1-6)]Man(a1-6)[Gal(b1-3)GlcNAc(b1-2)Man(a1-3)]Man(b1-4)GlcNAc(b1-4)GlcNAc
# How it was run: as §1
# [35] = biological target: Gal(b1-3)GlcNAc(b1-3)Gal(b1-3)GlcNAc
# How it was run: as §1
# [36] = biological target: Gal(b1-3)GlcNAc(b1-3)Gal(b1-4)Glc
# How it was run: as §1
# [37] = biological target: Gal(b1-3)GlcNAc(b1-3)Gal(b1-4)GlcNAc
# How it was run: as §1
# [38] = biological target: Gal(b1-3)GlcNAc(b1-3)Gal(b1-4)GlcNAc(b1-2)Man(a1-3)[Gal(b1-3)GlcNAc(b1-3)Gal(b1-4)GlcNAc(b1-2)Man(a1-6)]Man(b1-4)GlcNAc(b1-4)GlcNAc
# How it was run: as §1
# [39] = biological target: Gal(b1-3)GlcNAc(b1-3)Gal(b1-4)GlcNAc(b1-2)[Gal(b1-3)GlcNAc(b1-3)Gal(b1-4)GlcNAc(b1-6)]Man(a1-6)[Gal(b1-3)GlcNAc(b1-3)Gal(b1-4)GlcNAc(b1-2)Man(a1-3)]Man(b1-4)GlcNAc(b1-4)[Fuc(a1-6)]GlcNAc
# How it was run: as §1
# [40] = biological target: Gal(b1-3)GlcNAc(b1-3)Gal(b1-4)GlcNAc(b1-3)Gal(b1-4)GlcNAc(b1-2)[Gal(b1-3)GlcNAc(b1-3)Gal(b1-4)GlcNAc(b1-3)Gal(b1-4)GlcNAc(b1-6)]Man(a1-6)[Gal(b1-3)GlcNAc(b1-3)Gal(b1-4)GlcNAc(b1-3)Gal(b1-4)GlcNAc(b1-2)Man(a1-3)]Man(b1-4)GlcNAc(b1-4)[Fuc(a1-6)]GlcNAc
# How it was run: as §1
# [41] = biological target: Gal(b1-3)GlcNAc(b1-3)Gal(b1-4)GlcNAc(b1-6)[Gal(b1-3)GlcNAc(b1-3)]Gal(b1-4)Glc
# How it was run: as §1
# [42] = biological target: Gal(b1-3)GlcNAc(b1-3)Gal(b1-4)[Fuc(a1-3)]GlcNAc
# How it was run: as §1
# [43] = biological target: Gal(b1-3)GlcNAc(b1-3)Gal(b1-4)[Fuc(a1-3)]GlcNAc(b1-6)[Gal(b1-3)GlcNAc(b1-3)]Gal(b1-4)Glc
# How it was run: as §1
# [44] = biological target: Gal(b1-3)GlcNAc(b1-3)GalNAc
# How it was run: as §1
# [45] = biological target: Gal(b1-3)GlcNAc(b1-6)Gal(b1-4)GlcNAc
# How it was run: as §1
binder,measurement,setting,value
B1,glycan array binding signal (z-score),[1],-0.84
same,glycan array binding signal (z-score),[2],-0.662
same,glycan array binding signal (z-score),[3],-0.855
same,glycan array binding signal (z-score),[4],-0.602
same,glycan array binding signal (z-score),[5],-0.875
same,glycan array binding signal (z-score),[6],-0.389
same,glycan array binding signal (z-score),[7],-0.821
same,glycan array binding signal (z-score),[8],0.265
same,glycan array binding signal (z-score),[9],2.13
same,glycan array binding signal (z-score),[10],2.26
same,glycan array binding signal (z-score),[11],-0.347
same,glycan array binding signal (z-score),[12],-0.164
same,glycan array binding signal (z-score),[13],-0.732
same,glycan array binding signal (z-score),[14],0.169
same,glycan array binding signal (z-score),[15],0.748
same,glycan array binding signal (z-score),[16],-0.24
same,glycan array binding signal (z-score),[17],-0.654
same,glycan array binding signal (z-score),[18],-1
same,glycan array binding signal (z-score),[19],-0.812
same,glycan array binding signal (z-score),[20],-0.301
same,glycan array binding signal (z-score),[21],-0.928
same,glycan array binding signal (z-score),[22],-0.448
same,glycan array binding signal (z-score),[23],-0.806
same,glycan array binding signal (z-score),[24],0.799
same,glycan array binding signal (z-score),[25],-0.444
same,glycan array binding signal (z-score),[26],-0.754
same,glycan array binding signal (z-score),[27],0.056
same,glycan array binding signal (z-score),[28],-0.192
same,glycan array binding signal (z-score),[29],0.216
same,glycan array binding signal (z-score),[30],1.13
same,glycan array binding signal (z-score),[31],-0.886
same,glycan array binding signal (z-score),[32],-0.975
same,glycan array binding signal (z-score),[33],1.46
same,glycan array binding signal (z-score),[34],0.144
same,glycan array binding signal (z-score),[35],0.44
same,glycan array binding signal (z-score),[36],-0.424
same,glycan array binding signal (z-score),[37],-0.236
same,glycan array binding signal (z-score),[38],-0.701
same,glycan array binding signal (z-score),[39],-0.313
same,glycan array binding signal (z-score),[40],0.575
same,glycan array binding signal (z-score),[41],-0.309
same,glycan array binding signal (z-score),[42],1.17
same,glycan array binding signal (z-score),[43],0.457
same,glycan array binding signal (z-score),[44],0.082
same,glycan array binding signal (z-score),[45],-0.386

# 2 entries from above, set out differently:
binder	measurement	setting	value
B1	glycan array binding signal (z-score)	[36]	-0.424
same	glycan array binding signal (z-score)	[37]	-0.236
